Reference: PubChem BioAssay AID652259 (Drosophila RNAi Screening Center, 2013)

- Purpose: 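Identify new Wingless signalling regulators in fly cells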 (primary screen)
- Cell system: Drosophila clone 8 imaginal disc epithelial cells
- Reagents: long dsRNA against Drosophila genes
- Treatment: pathway stimulated by co-transfected Wingless expression plasmid
- Measured: 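Firefly luciferase from a tcf-site Wingless reporter, measured alongside co-transfected Renilla luciferase that tracks transfection; pathway stimulated by a Wingless plasmid; the firefly-to-Renilla ratio is not deposited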
- Reading the numbers: firefly reporter light: higher = more Wg reporter light, before normalisation; Renilla control light: higher = more transfected or surviving cells
- Hit rule: 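a knock-down is a candidate when at least two out of four statistical tests show it departing from its plate mean; one test alone signals a weak candidate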
- Calls: active = candidate regulator (raises or lowers reporter); inactive = not a candidate
The screen tested about 22,000 reagents; this is an unselected part of those that have a named target and a result. In the full data, 233 (1.1%) are marked active. 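Light values are raw, unnormalised plate reads; the ratio scores behind the reporter calls were not deposited.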 A plus sign joins genes that one reagent is predicted to hit. Not given: the amount of reagent, the time to read-out, the dose of the treatment.

Gene,amplicon,"firefly reporter light, replicate 1","firefly reporter light, replicate 2","Renilla control light, replicate 1","Renilla control light, replicate 2",outcome
RpL11,DRSC07537,17408,,2885,,inactive
Cyp18a1,DRSC20235,12805,,11307,,inactive
Slu7,DRSC14729,6610,,2171,,inactive
AQP,DRSC06122,7116,,2405,,inactive
CG14402,DRSC02386,2184,6810,774,2183,inactive
Mfap1,DRSC08154,15120,,2755,,inactive
Inx3,DRSC14857,2485,8453,1204,3709,inactive
RpS3A,DRSC17168,8003,,10128,,inactive
Npc2d,DRSC14551,13149,,3546,,inactive
Fancl,DRSC14550,16032,,2952,,inactive
ms(3)76Cc,DRSC11071,21948,,7249,,inactive
ms(3)76Cc,DRSC21630,3.92e5,4.45e5,1.62e5,1.61e5,inactive
mRpL54,DRSC04545,12764,,3717,,inactive
CG4646,DRSC06876,6982,,2583,,inactive
CG17163,DRSC20901,20504,,8837,,inactive
Rbp1-like,DRSC19828,28130,,13248,,inactive
Rbp1-like,DRSC21938,5.63e5,5.87e5,2.27e5,2.47e5,inactive
Rbp1-like,DRSC22075,6.36e5,7.10e5,1.62e5,1.58e5,inactive
CG43271,DRSC01614,20883,,9127,,inactive
CG43271,DRSC21741,5.41e5,4.04e5,3.44e5,1.82e5,inactive
sas,DRSC12631,9696,,2512,,inactive
CG13955,DRSC06443,2896,8395,805,4584,inactive
Fcp1,DRSC04121,12252,,3466,,inactive
Ir60b,DRSC04217,2592,9335,787,2651,inactive
CG3308,DRSC15474,3270,7398,1144,2515,inactive
PPO1,DRSC05929,16024,,2775,,inactive
tzn,DRSC11755,4081,,2167,,inactive
roh,DRSC04003,20924,,8919,,inactive
Plap,DRSC00678,7570,,4711,,inactive
CG5592,DRSC10524,2019,5392,1591,3162,inactive
Ythdf,DRSC16036,15463,,14711,,inactive
Ythdf,DRSC16037,23217,,19929,,inactive
DnaJ-1,DRSC11145,3187,,880,,inactive
Mctp,DRSC06510,8117,,3032,,inactive
Mctp,DRSC22896,9.59e5,8.65e5,5.15e5,232,inactive
dpr9,DRSC14534,8226,,3187,,inactive
dpr9,DRSC14985,17562,,1908,,inactive
dpr9,DRSC14986,19008,,1610,,inactive
Tep4,DRSC03453,1392,5609,568,1978,inactive
Cys,DRSC16637,9661,,3942,,inactive
CG31467,DRSC16048,17152,,4099,,inactive
fid,DRSC14885,20450,,11408,,inactive
fid,DRSC16464,29905,,12208,,inactive
Cyp4c3,DRSC16631,2985,5912,963,1909,inactive
Vinc,DRSC18728,1825,6192,912,2339,inactive
CG12491 + CG34105,DRSC04008,23808,,8347,,inactive
CG12491 + CG34105,DRSC04124,3651,10656,768,2598,inactive
CG12923,DRSC06237,1959,5778,659,2128,inactive
Vsp37A,DRSC18794,21904,,11920,,inactive
CG15517,DRSC15056,7872,,3075,,inactive
CG42538,DRSC09412,6148,,2087,,inactive
CG11920,DRSC14439,2832,4035,1418,1675,inactive
scaf6,DRSC10075,6464,,2775,,inactive
scaf6,DRSC10676,6256,,2950,,inactive
scaf6,DRSC10678,4995,,1094,,inactive
CG7707,DRSC10903,8530,,3303,,inactive
18w,DRSC05029,13875,,2957,,inactive
CG11581,DRSC19407,21881,,10263,,inactive
ATPsynC,DRSC15236,3233,5136,737,2040,inactive
TwdlD,DRSC14738,6241,,2576,,inactive
Stim,DRSC20158,2354,5664,704,2275,inactive
Schip1,DRSC02851,1745,8033,885,3632,inactive
rost,DRSC03603,11088,,3772,,inactive
CG5274,DRSC11774,7045,,2211,,inactive
CG10019,DRSC00279,2320,3795,625,1424,inactive
CG3598,DRSC18471,19613,,14713,,inactive
CG3106,DRSC18279,2627,8490,1066,3329,inactive
CG4594,DRSC02762,5264,,2250,,inactive
Ipo9,DRSC16813,10740,,3293,,inactive
fan,DRSC10930,1698,4753,1080,2508,inactive
Root,DRSC15972,12722,,13729,,inactive
CG5819,DRSC04520,2215,5652,641,3474,inactive
CG7080,DRSC16193,1858,3776,694,1200,inactive
CG15580,DRSC12266,11245,,2567,,inactive
CG33303,DRSC02848,1865,6755,697,3394,inactive
CG3702,DRSC00628,11383,,5443,,inactive
CG14687,DRSC14910,22217,9.04e5,5666,3.81e5,inactive
Faf2,DRSC03325,9370,,2262,,inactive
Ugt36F1,DRSC02601,2631,6707,530,2596,inactive
TfIIEbeta,DRSC08701,13378,,2970,,inactive
CG6283,DRSC16009,6826,,2699,,inactive
CG6845,DRSC08576,13580,,4736,,inactive
CG15882,DRSC19735,15524,,8859,,inactive
CG5704,DRSC08572,14432,,4849,,inactive
Strn-Mlck,DRSC05032,9792,,3925,,inactive
Strn-Mlck,DRSC05598,14929,,11514,,inactive
Strn-Mlck,DRSC06571,7488,,2630,,inactive
Strn-Mlck,DRSC07471,4647,,2121,,inactive
CG1143,DRSC08188,7545,,2669,,inactive
Rbbp5 + CG6434 (retired record),DRSC10635,18460,,5131,,inactive
Rcd6,DRSC06054,12633,,4034,,inactive
CG9147,DRSC03147,3317,6163,876,1993,inactive
Ak1,DRSC10248,7680,,2272,,inactive

Already shown: an excerpt of the list.
Gene,amplicon,"firefly reporter light, replicate 1","firefly reporter light, replicate 2","Renilla control light, replicate 1","Renilla control light, replicate 2",outcome
CG6845,DRSC08576,13580,,4736,,inactive
CG15882,DRSC19735,15524,,8859,,inactive
CG5704,DRSC08572,14432,,4849,,inactive
Strn-Mlck,DRSC05032,9792,,3925,,inactive
Strn-Mlck,DRSC05598,14929,,11514,,inactive
Strn-Mlck,DRSC06571,7488,,2630,,inactive
Strn-Mlck,DRSC07471,4647,,2121,,inactive
CG1143,DRSC08188,7545,,2669,,inactive
